The values below come from article PMC4737149, “The autoinhibitory CARD2-Hel2i Interface of RIG-I governs RNA selection”.

Data set [1] has as its target T1, RIG-I full length (wt) (human) (UniProt O95786).
T1 sequence (looked up): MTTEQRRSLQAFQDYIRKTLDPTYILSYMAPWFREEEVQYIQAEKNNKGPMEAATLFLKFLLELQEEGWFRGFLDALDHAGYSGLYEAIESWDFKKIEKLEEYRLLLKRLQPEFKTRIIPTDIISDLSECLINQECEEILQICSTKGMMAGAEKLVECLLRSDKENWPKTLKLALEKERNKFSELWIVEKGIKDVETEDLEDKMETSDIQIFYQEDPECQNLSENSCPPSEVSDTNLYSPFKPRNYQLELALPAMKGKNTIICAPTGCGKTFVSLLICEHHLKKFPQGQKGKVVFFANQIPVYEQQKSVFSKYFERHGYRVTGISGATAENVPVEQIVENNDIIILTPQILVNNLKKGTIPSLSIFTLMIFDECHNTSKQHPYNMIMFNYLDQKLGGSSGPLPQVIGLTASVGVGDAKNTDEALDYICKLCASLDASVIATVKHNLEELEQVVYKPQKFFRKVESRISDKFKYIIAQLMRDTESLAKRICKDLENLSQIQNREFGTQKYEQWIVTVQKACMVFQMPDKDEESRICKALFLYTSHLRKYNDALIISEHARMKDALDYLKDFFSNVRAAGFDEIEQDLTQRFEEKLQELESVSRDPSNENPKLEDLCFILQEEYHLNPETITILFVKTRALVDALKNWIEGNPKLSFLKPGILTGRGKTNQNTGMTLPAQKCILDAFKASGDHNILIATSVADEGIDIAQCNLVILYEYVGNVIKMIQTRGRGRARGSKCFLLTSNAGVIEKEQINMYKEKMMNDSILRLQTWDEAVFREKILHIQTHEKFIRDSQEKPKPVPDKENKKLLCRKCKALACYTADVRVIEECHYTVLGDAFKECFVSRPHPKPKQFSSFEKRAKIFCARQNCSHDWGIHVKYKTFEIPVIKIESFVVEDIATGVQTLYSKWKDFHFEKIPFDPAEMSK
Description: ATPase titration (Kd,app). The note with it: ATP, 37 C, 150 mM NaCl stated for some supplementary assays, anisotropy at 15 C with 1-2 nM (blunt) or 40 nM (non-blunt) labelled RNA, recombinant protein, residues 1-925, protein details: N-terminal SUMO fusion construct, His (Ni-NTA).

The target of data set [2] is T2, RIG-I C-terminal repressor domain (RD) (human) (UniProt O95786).
T2 sequence (looked up): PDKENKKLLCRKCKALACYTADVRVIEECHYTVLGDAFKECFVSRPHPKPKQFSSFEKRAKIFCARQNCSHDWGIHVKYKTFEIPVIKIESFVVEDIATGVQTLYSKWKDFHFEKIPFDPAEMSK
The experiment in a line: fluorescence anisotropy. To be noted: 15 C, 150 mM NaCl stated for some supplementary assays, anisotropy at 15 C with 1-2 nM (blunt) or 40 nM (non-blunt) labelled RNA, recombinant protein, residues 801-925, protein details: N-terminal SUMO fusion construct, His (Ni-NTA). (In general: Fluorescence polarisation rises when a labelled molecule tumbles more slowly, as on binding a larger partner.)

Data set [3] concerns the target T1, RIG-I full length (wt) (human). Description: fluorescence anisotropy. To be noted: no ATP, 15 C, Kd within 3-478 nM, 150 mM NaCl stated for some supplementary assays, anisotropy at 15 C with 1-2 nM (blunt) or 40 nM (non-blunt) labelled RNA, recombinant protein, residues 1-925, protein details: N-terminal SUMO fusion construct, His (Ni-NTA).

For some of these results: Negatives hold for the conditions tested. Tags and fusion partners may be left off the protein sequences shown. For some of these results: Construct, isoform or probe ends are uncertain for at least one entry. For some of these results: Weaker means in comparison with the reference protein, sequence or condition of that experiment. For some of these results: At least one verdict rests on a figure or table, not on a statement of the authors.

CGUGAGACAU [5'ppp ss10 RNA]: the binding result in data set [1] (5'-triphosphate) is “no binding”.
Consider “CGUGAGACAU / GUCUCACGUA [5'OH 3'ovg RNA]”, for which the binding result is “binds” in data set [2] (tighter than 5'ovg, label: fluorescein on strand 2 in fluorescence assays) and “binds” in data set [3] (label: fluorescein on strand 2 in fluorescence assays).
Take “CGUGAGACAU / UCAUGUCUCA [5'ppp 5'ovg RNA]”: the binding result is on record as “binds” in data set [2] (weaker than 3'ovg, 5'-triphosphate on strand 1, label: 5' fluorescein on strand 2 in fluorescence …) and “binds” in data set [3] (5'-triphosphate on strand 1, label: 5' fluorescein on strand 2 in fluorescence assays).
Turning to CGUGAGACAU [5'OH ss10 RNA], the binding result in data set [1] is listed as “no binding”.
In the case of “CGUGAGACAU / UCAUGUCUCA [5'OH 5'ovg RNA]”, in data set [2] (weaker than 3'ovg and than 5'ppp, label: 5' fluorescein on strand 2 in fluorescence …), the binding result is listed as “binds more weakly”.
